Sequences of proteins named here, by UniProt entry; tags and fusion partners are left off. A change or cut given only in a name is not applied to a line headed by its entry.
UniProt Q8T9L5: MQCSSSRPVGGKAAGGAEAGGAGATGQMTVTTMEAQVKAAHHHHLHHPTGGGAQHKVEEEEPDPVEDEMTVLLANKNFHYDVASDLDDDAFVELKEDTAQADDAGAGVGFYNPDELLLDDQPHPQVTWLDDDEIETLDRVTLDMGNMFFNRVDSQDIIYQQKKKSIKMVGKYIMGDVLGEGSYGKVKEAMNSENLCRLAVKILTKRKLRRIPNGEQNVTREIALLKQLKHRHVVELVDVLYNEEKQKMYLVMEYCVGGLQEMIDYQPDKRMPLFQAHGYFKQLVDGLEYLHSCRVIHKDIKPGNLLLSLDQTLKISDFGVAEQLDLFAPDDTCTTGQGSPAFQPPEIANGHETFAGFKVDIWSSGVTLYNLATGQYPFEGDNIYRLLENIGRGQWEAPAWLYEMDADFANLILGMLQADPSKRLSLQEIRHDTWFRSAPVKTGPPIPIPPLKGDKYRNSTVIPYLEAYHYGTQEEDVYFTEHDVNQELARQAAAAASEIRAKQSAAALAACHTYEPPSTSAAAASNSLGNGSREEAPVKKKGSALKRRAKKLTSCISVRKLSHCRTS

In publication PMC5490199:

How the values were obtained:
[1] = target: GFP-LKB1 ΔLB C564A (membrane-binding-deficient Drosophila LKB1) (Drosophila); assay: co-IP; GFP-Trap (ChromoTek) on GFP-LKB1; Drosophila embryonic lysates that ubiquitously expressed the proteins using arm::GAL4
[2] = target: GFP-LKB1 (wild-type Drosophila LKB1) (Drosophila) (UniProt Q8T9L5); assay: as above

binding [1]: binds
binding [2]: binds
B1: HA-tagged DmSTRADα (Stlk) (protein, UniProt P83098 1-346)
chain: MMCSNNISDYKLLEILKNGMIGTVYKAEDINNKCLAVKKVSMDQPMEKLTLLFNEVLTVRRLQHRNINTIVSCFLYKQYVYLTYKFMCFGNCEVLLKNVYTSGFPEVAIALILKDVLSALTYIHSEHYVHGSVRAKHILLSPRKAVLSNFSYCQSFISQGEKKTFIFGSTVGIEKELYWTAPEVLYQNLSGYTEKIDIYSIGITCCEMANGFQPFKDTELTYMYIEKVRGSLQVLLDKNSLLENQGSLSLEHTNKRIARDVIVNKSFSENFHQFVELCLNKNPLSRWAASKLMTHSFLKQCRNTSLLDQLKDLGQKMSKFKRNEHEIFSDARGSHNPQPNDTIWKF

These are yes or no findings as the source states them, for the method shown. In cells and extracts the contact can be indirect. Binding can be weak; no strength is given. Sequences can lack the tags named with a protein.
